# According to the odorant receptor screen of Mainland et al. (2015):
# “And” between values parts separate entries of the source, which are not always exact repeats. Equal values may be shown once. The list shows a part of the results. Single wells; the ratio to wells without odorant was worked out here, and repeats agree poorly.
# Tests used:
# Experiment in all cases: odorant receptor activation (CRE luciferase / Renilla) (fold of no-odor wells); higher = more activation
# Conditions in all cases: 100 µM
# [1] = test system: OR8B3 H20R/Q24R/V34I/M114I clone 1727
# [2] = test system: OR8B4 E22G clone 1227
# [3] = test system: OR8B4 Y131H/C140F/C178R clone 1440
# [4] = test system: OR8B8 clone 1226
# [5] = test system: OR8B8 clone 1504
# [6] = test system: OR8D1 clone 1142
# [7] = test system: OR8D2 clone 1179
# [8] = test system: OR8D4 C120Y/R133K/F200L/L283P/R298K clone 1072
# [9] = test system: OR8G1 clone 1395
# [10] = test system: OR8G5 clone 1323
# [11] = test system: OR8G5 clone 1493
# [12] = test system: OR8H1 clone 1388
# [13] = test system: OR8H2 A105V/I154M/V158L/Y169C/D170Y/Y259H/V284M clone 1214
# [14] = test system: OR8H3 P137S clone 1215
# [15] = test system: OR8I2 clone 1213
# [16] = test system: OR8J1 Y120C clone 1500
# [17] = test system: OR8J3 clone 1149
# [18] = test system: OR8K1 clone 1431
# [19] = test system: OR8K3 L122R clone 1195
# [20] = test system: OR8K5 clone 1150
Structure (SMILES),odorant receptor activation [1],odorant receptor activation [2],odorant receptor activation [3],odorant receptor activation [4],odorant receptor activation [5],odorant receptor activation [6],odorant receptor activation [7],odorant receptor activation [8],odorant receptor activation [9],odorant receptor activation [10],odorant receptor activation [11],odorant receptor activation [12],odorant receptor activation [13],odorant receptor activation [14],odorant receptor activation [15],odorant receptor activation [16],odorant receptor activation [17],odorant receptor activation [18],odorant receptor activation [19],odorant receptor activation [20]
COC(=O)c1ccccc1O [methyl salicylate],0.794,0.826,1.13,0.957,0.881,0.903,0.855,0.963,1.38,0.737,0.902,1.34,0.731,0.84,1.47,1.19,0.748,1.19,0.803,0.962
COc1cc(C=O)ccc1O [vanillin],0.557,1.46,0.832,0.874,1.15,1.35,0.839,1.1,0.931,0.881,0.894,1.04,1.09,1.1,1.19,1.18,1.54,1.02,0.889,1.33
CCCCCOC(C)=O [n-amyl acetate],0.429,0.6,0.933,0.54,0.69 and 0.879,0.751,0.598,2.14,0.827,0.548,1.16 and 0.817,1.11,0.597,0.798,0.438,1.17 and 0.875,0.839,0.927,0.673,0.675
"CC1CCC(C(C)C)C(O)C1 (single isomer, unassigned; (+)) [(+)-menthol]",0.109,1.12,1.06,1.01,0.928,1.1,1.01,2.34,0.969,0.946,1.22,1.46,0.763,0.809,1.41,1.03,1.26,0.857,1.91,1.19
C=CCc1ccc(OC(C)=O)c(OC)c1 [eugenol acetate],1.54,1.5,1.88,1.39,1.69,2.38,1.51,2.08,1.4,1.56,1.27,1.51,1.8,1.49,1.48,1.75,1.51,1.73,1.85,1.55
CC/C=C\CCO [cis-3-hexen-1-ol],1.01,0.816,0.117,0.708,0.82,1.04,0.953,0.964,0.257,0.916,0.834,0.222,0.909,0.977,0.847,1.27,1.16,0.136,1.06,0.839
C=C(C)C1CCC2=CC(=O)CC(C)C2(C)C1 (stereo unspecified) [amyl laurate],0.693,,,,,,,,,,,,,,,,,,,
CCCCCCCOC(C)=O [heptyl acetate],1.21,1.08,0.998,0.866,0.732 and 1.4,1.17,0.948,2.04,0.77,0.822 and 0.965,1.11 and 1.22,0.939,0.838,0.851,1.06,0.628 and 1.09,1.08,1.03,1.03,0.821
C=CCc1ccc(OC)c(OC)c1 [eugenol methyl ether],0.628,1.67,1.58,1.65,1.36,1.91,1.38,2.03,1.67,1.51,1.11,1.45,1.77,1.49,1.3,1.43,1.52,1.37,1.46,1.38
CC(C)=CCCC(C)=CC=O [citral],0.416,1.12,0.151,0.853,0.86,1.07,0.996,1.13,0.297,1.06,0.901,0.261,0.925,1.03,0.889,1.41,1.27,0.164,1.28,1.11
CC(=O)OC1CC2CCC1(C)C2(C)C (stereo unspecified) [isobornyl acetate],0.886,1.28,0.863,0.917,0.837 and 1.2,1.15,1.06,2.11,0.822,0.761 and 0.801,0.938 and 1.2,0.798,1.07,0.817,1.25,0.883 and 0.96,0.952,1.15,1.08,0.832
CCCCCC(=O)O [caproic acid],0.434,0.984,0.125,0.852,0.921,1.02,0.958,1,0.227,0.823,1.01,0.209,0.887,1.05,0.842,1.04,1.05,0.112,1.07,0.887
CCCCCCCCCCC=O [undecanal],0.156,1.02,0.983,0.691,1.13,0.926,0.921,1.19,1.17,0.857,0.779,1.12,1.04,1.01,1.01,1.21,1.1,1.21,1.37,1.14
CCCCCCCC=CC=O [2-decenal],0.381,1.47,1.19,0.884,2.58,1.07,0.978,3.46,2.74,0.772,1.83,2.7,0.691,0.736,0.918,2.03,1.09,0.78,0.744,1.21
O=C1CCCCCCCCCCCCCCO1 [pentadecalactone],0.785,0.948,1.2,0.897,0.988,0.846,0.683,0.969,1.05,0.747,0.858,1.19,0.923,1.01,0.84,0.796,0.9,1.26,0.741,0.948

# Just odorant receptor activation [9], odorant receptor activation [3] and odorant receptor activation [17], for some of the entries so far:
Structure (SMILES) | odorant receptor activation [9] | odorant receptor activation [3] | odorant receptor activation [17]
CCCCCCCOC(C)=O [heptyl acetate] | 0.77 | 0.998 | 1.08
C=CCc1ccc(OC)c(OC)c1 [eugenol methyl ether] | 1.67 | 1.58 | 1.52
